Binding data for one molecule are collected here from PMC11806007.

The chains behind the UniProt entries cited, without tags or fusion partners.
UniProt Q00987: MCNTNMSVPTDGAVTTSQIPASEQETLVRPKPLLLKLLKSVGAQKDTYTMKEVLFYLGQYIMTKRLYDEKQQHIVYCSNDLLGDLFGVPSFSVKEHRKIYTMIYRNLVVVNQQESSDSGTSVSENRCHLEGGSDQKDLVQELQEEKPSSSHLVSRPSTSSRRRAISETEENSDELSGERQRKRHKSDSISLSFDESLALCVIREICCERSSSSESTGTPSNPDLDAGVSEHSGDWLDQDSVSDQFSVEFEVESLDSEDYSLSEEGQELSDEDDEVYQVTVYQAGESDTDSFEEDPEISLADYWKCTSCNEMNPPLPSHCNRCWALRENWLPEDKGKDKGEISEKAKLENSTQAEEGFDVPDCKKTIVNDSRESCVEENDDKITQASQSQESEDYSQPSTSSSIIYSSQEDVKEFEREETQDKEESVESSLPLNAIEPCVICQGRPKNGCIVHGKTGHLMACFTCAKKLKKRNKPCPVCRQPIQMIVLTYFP

Results are given in words; binding and its absence hold for the method and conditions named. Some binding calls cover weakened binding; strength is not graded here.

In this assay the target is GST-MDM2 (human) (UniProt Q00987). Briefly: pull-down; GST or GST-MDM2 held by GST pull-down, incubated with 50 ng of recombinant spastin proteins or fragment in 50 mM Tris-HCl, pH 7.5, 150 nM NaCl (so in the source); bound spastin detected by WB; both purified.

B1: spastin recombinant fragment containing the MIT domain (79-298 aa) (domain or fragment, UniProt Q9UBP0 79-298)
chain: CQRFSRALMAAKRSSGAAPAPASASAPAPVPGGEAERVRVFHKQAFEYISIALRIDEDEKAGQKEQAVEWYKKGIEELEKGIAVIVTGQGEQCERARRLQAKMMTNLVMAKDRLQLLEKMQPVLPFSKSQTDVYNDSTNLACRNGHLQSESGAVPKRKDPLTHTSNSLPRSKTVMKTGSAGLSGHHRAPSYSGLSMVSGVKQGSGPAPTTHKGTPKTNRT
As for B1, the binding entry is “binds”.
